This is an account of results in patent US8246758B2, “Neutral or alkaline medium chain peroxycarboxylic acid compositions and methods employing them” (Ecolab USA Inc., priority 2004, dated 2012).

“And” between values parts separate entries of the source, which are not always exact repeats. Identical values can stand only once.

This data set in a line: Corrosion test, brass. The note with it: Peroxyacetic Acid, pH 6.5.

`CC(=O)OO` [Peroxyacetic Acid]: the “Milli-inches per year (mpy) of corrosion, brass” value runs as follows: (4.5 wt-%) 9.798 mpy and 9.136 mpy; (6.8 wt-%) 12.16 mpy and 11.59 mpy.
